Experimental data published in article PMC7862700.
The entries are a selection whose mix differs from that of the whole data set. For part of these data: At the low end of the ranking the order means little. The list shows a part of the results. For part of these data: The exact form of the protein is not confirmed.

Molecular target: T1, GABPA (UniProt Q06546)
T1 sequence: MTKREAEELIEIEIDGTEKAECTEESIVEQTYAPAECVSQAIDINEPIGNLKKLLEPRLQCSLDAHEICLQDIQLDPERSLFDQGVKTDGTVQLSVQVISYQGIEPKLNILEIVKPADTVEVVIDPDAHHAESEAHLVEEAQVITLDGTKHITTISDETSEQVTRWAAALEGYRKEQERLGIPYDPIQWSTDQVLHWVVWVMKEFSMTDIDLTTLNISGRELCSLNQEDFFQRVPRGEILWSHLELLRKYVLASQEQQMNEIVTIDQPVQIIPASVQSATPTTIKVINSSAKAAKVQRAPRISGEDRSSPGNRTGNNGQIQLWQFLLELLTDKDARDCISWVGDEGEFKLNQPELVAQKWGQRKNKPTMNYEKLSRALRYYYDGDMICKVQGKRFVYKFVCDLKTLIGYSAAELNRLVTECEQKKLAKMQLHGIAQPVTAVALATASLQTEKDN
Assay: DAPPL (digital affinity profiling via proximity ligation, sequencing)
Details: 10 mM Tris-HCl pH 7.5, 50 mM NaCl, 1 mM DTT, 4% glycerol, room temperature, 30 min; GST-TFs on glutathione beads, 16-mer random dsDNA library, 0.1% …; high values mean tight binding; double strand, one strand shown; scale: fold enrichment (6-mer frequency, TF over GST control)

Row | Sequence | binding signal
1 | CCCATT | 1.46
2 | ACCCGC | 1.35
3 | TTTTGC | 1.38
4 | CTCTCA | 1.52
5 | AACCAA | 1.25
6 | ATTGAA | 1.07
7 | TCTACG | 1.3
8 | TAAATA | 1.21
9 | CTGCAA | 1.2
10 | TATGAA | 1.21
11 | CTAAGA | 1.16
12 | GAAATC | 1.34
13 | TCTCAC | 1.43
14 | TAATGC | 1.26
15 | GGAACA | 0.983
16 | TCCAAT | 1.18
17 | CAAAAA | 1.16
18 | TAGGCT | 1.3
19 | CTACTT | 1.72
20 | CCATTT | 1.42

Row | Sequence | binding signal
21 | TTTGCG | 1.26
22 | TTATCA | 1.05
23 | GCCTAT | 1.21
24 | CATTTC | 1.64
25 | CTGCCC | 1.29
26 | CTCAAA | 1.16
27 | AGGTAT | 1.07
28 | AAAAGG | 1.25
29 | ATGTAT | 1.27
30 | TCCTTG | 1.25
31 | AAGTCA | 1.15
32 | ATACCT | 1.07
33 | GGTCCT | 0.954
34 | TGTCCA | 1.1
35 | CTATCT | 1.34
36 | ATCAGC | 0.958
37 | TTTGAA | 1.2
38 | GTCCTA | 1.22
39 | CTAACG | 1.09

Molecular target: T2, ETS1 (UniProt P14921)
T2 sequence: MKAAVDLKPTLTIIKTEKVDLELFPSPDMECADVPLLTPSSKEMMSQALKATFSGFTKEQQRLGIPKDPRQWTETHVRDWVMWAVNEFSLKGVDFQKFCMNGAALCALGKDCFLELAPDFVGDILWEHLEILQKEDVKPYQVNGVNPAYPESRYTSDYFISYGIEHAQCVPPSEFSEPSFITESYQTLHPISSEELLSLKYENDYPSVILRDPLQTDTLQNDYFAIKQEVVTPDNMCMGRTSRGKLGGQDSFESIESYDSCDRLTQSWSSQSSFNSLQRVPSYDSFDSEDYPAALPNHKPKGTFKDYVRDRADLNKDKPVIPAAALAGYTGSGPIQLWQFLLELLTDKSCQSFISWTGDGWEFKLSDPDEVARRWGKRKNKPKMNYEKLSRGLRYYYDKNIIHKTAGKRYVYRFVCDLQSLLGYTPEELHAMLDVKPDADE
Assay: as above
Details: 10 mM Tris-HCl pH 7.5, 50 mM NaCl, 1 mM DTT, 4% glycerol, room temperature, 30 min; GST-TFs on glutathione beads, 16-mer random dsDNA library, 0.1% …; high values mean tight binding; double strand, one strand shown; scale: fold enrichment (6-mer frequency, TF over GST control)

Row | Sequence | binding signal
40 | CCCATT | 1.3
41 | ACCCGC | 1.31
42 | TTTTGC | 1.37
43 | CTCTCA | 1.49
44 | AACCAA | 1.19
45 | ATTGAA | 1.1
46 | TCTACG | 1.45
47 | TAAATA | 1.32
48 | CTGCAA | 1.28
49 | TATGAA | 1.18
50 | CTAAGA | 1.11
51 | GAAATC | 1.39
52 | TCTCAC | 1.48
53 | TAATGC | 1.22
54 | GGAACA | 1.08
55 | TCCAAT | 1.25
56 | CAAAAA | 1.21
57 | TAGGCT | 1.19
58 | CTACTT | 1.74
59 | CCATTT | 1.27

Row | Sequence | binding signal
60 | TTTGCG | 1.22
61 | TTATCA | 1.11
62 | GCCTAT | 1.27
63 | CATTTC | 1.61
64 | CTGCCC | 1.32
65 | CTCAAA | 1.11
66 | AGGTAT | 1.06
67 | AAAAGG | 1.13
68 | ATGTAT | 1.44
69 | TCCTTG | 1.4
70 | AAGTCA | 1.19
71 | ATACCT | 1.11
72 | GGTCCT | 0.992
73 | TGTCCA | 1.13
74 | CTATCT | 1.36
75 | ATCAGC | 0.992
76 | TTTGAA | 1.19
77 | GTCCTA | 1.29
78 | CTAACG | 1.17

Molecular target: T3, SPDEF (UniProt O95238)
T3 sequence: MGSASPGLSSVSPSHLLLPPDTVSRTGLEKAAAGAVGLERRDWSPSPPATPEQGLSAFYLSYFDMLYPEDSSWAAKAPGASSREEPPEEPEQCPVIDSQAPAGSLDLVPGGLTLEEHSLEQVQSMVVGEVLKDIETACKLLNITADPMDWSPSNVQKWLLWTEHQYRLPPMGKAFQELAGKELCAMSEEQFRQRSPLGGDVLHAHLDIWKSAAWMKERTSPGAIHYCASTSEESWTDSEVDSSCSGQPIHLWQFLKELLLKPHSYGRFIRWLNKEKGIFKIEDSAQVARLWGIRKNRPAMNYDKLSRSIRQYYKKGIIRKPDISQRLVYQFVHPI
Assay: as above
Details: 10 mM Tris-HCl pH 7.5, 50 mM NaCl, 1 mM DTT, 4% glycerol, room temperature, 30 min; GST-TFs on glutathione beads, 16-mer random dsDNA library, 0.1% …; high values mean tight binding; double strand, one strand shown; scale: fold enrichment (6-mer frequency, TF over GST control)

Row | Sequence | binding signal
79 | CCCATT | 1.19
80 | ACCCGC | 1.16
81 | TTTTGC | 1.35
82 | CTCTCA | 1.32
83 | AACCAA | 1.21
84 | ATTGAA | 1.07
85 | TCTACG | 1.33
86 | TAAATA | 1.15
87 | CTGCAA | 1.11
88 | TATGAA | 1.16
89 | CTAAGA | 1.15
90 | GAAATC | 1.4
91 | TCTCAC | 1.23
92 | TAATGC | 1.17
93 | GGAACA | 1.15
94 | TCCAAT | 1.2
95 | CAAAAA | 1.07
96 | TAGGCT | 1.24
97 | CTACTT | 1.79
98 | CCATTT | 1.21

Row | Sequence | binding signal
99 | TTTGCG | 1.2
100 | TTATCA | 0.984
101 | GCCTAT | 1.27
102 | CATTTC | 1.75
103 | CTGCCC | 1.23
104 | CTCAAA | 1.14
105 | AGGTAT | 1.12
106 | AAAAGG | 1.07
107 | ATGTAT | 1.65
108 | TCCTTG | 1.48
109 | AAGTCA | 1.18
110 | ATACCT | 1.04
111 | GGTCCT | 1.1
112 | TGTCCA | 1.13
113 | CTATCT | 1.3
114 | ATCAGC | 0.873
115 | TTTGAA | 1.15
116 | GTCCTA | 1.29
117 | CTAACG | 1.16
